Earlier results on 1 compound are cited in paper PMC6033897, “Characterization and Validation of a Human 3D Cardiac Microtissue for the Assessment of Changes in Cardiac Pathology” (Scientific Reports, 2018).

Structures are written as SMILES. Counter-ions that a name gives are not always drawn.

For the data set the following is noted: total Cmax, therapeutically relevant maximum total plasma concentration; source not given; cited from earlier work.

As to `COc1cc2c(cc1OC)C(=O)C(CC1CCN(Cc3ccccc3)CC1)C2` (stereo not shown) [Donepezil HCl], the Cmax was 200 nM.
